The assay has as its system MCF-7 cells (human breast carcinoma). Kind of assay: MTT cytotoxicity assay, MCF-7. The class given is cell-based. The note with it: read-out: (IC50 ± SD) MCF-7, at least 72 h incubation, mean ± SD. (In general: Tetrazolium dyes change colour on reduction, which living cells bring about.)

As to `N.N.[Cl][Pt][Cl]` [Cisplatin], the IC50 (in general, the midpoint of a concentration-inhibition curve) turned out to be 11.6 ± 1.66 µM.

For the origin of these results see publication PMC7108934 (ChemPlusChem, 2019).
